Experiments:
[1] = target: FGR (Homo sapiens, UniProt P09769); assay: biochemical; details: read-out: % enzyme activity, 1 μM; Run 1, Run 2
[2] = target: EGFR (Homo sapiens, UniProt P00533); details: 1 μM; Run 1, Run 2
[3] = target: IRR/INSRR (Homo sapiens, UniProt P14616); details: 1 μM; Run 1, Run 2
[4] = target: CDK17/cyclin Y (PCTK2) (Homo sapiens, UniProt Q00537); assay: biochemical; details: read-out: % enzyme activity, 1 μM; Run 1, Run 2
[5] = target: MEK5 (Homo sapiens, UniProt Q13163); assay: biochemical; details: read-out: % enzyme activity, 1 μM; Run 1, Run 2
[6] = target: PKD2/PRKD2 (Homo sapiens, UniProt Q9BZL6); assay: biochemical; details: read-out: % enzyme activity, 1 μM; Run 1, Run 2
[7] = target: EPHB2 (Homo sapiens, UniProt P29323); details: 1 μM; Run 1, Run 2
[8] = target: CDK3/cyclin E2 (Homo sapiens, UniProt Q00526); assay: biochemical; details: read-out: % enzyme activity, 1 μM; Run 1, Run 2
[9] = target: BRSK1 (Homo sapiens, UniProt Q8TDC3); details: 1 μM; Run 1, Run 2
[10] = target: RIPK2 (Homo sapiens, UniProt O43353); details: 1 μM; Run 1, Run 2
[11] = target: CDC7/DBF4 (Homo sapiens, UniProt O00311); details: 1 μM; Run 1, Run 2
[12] = target: PYK2 (Homo sapiens, UniProt Q14289); assay: biochemical; details: read-out: % enzyme activity, 1 μM; Run 1, Run 2
[13] = target: HIPK4 (Homo sapiens, UniProt Q8NE63); details: 1 μM; Run 1, Run 2
[14] = target: TAK1 (Homo sapiens, UniProt O43318); details: 1 μM; Run 1, Run 2
[15] = target: RIPK5 (Homo sapiens, UniProt Q6XUX3); details: 1 μM; Run 1, Run 2
[16] = target: MASTL (Homo sapiens, UniProt Q96GX5); assay: biochemical; details: read-out: % enzyme activity, 1 μM; Run 1, Run 2
[17] = target: LIMK2 (Homo sapiens, UniProt P53671); assay: biochemical; details: read-out: % enzyme activity, 1 μM; Run 1, Run 2
[18] = target: EPHB1 (Homo sapiens, UniProt P54762); details: 1 μM; Run 1, Run 2
[19] = target: c-MET (Homo sapiens, UniProt P08581); assay: biochemical; details: read-out: % enzyme activity, 1 μM; Run 1, Run 2
[20] = target: OSR1/OXSR1 (Homo sapiens, UniProt O95747); details: 1 μM; Run 1, Run 2
[21] = target: ERK5/MAPK7 (Homo sapiens, UniProt Q13164); details: 1 μM; Run 1, Run 2
[22] = target: MKK6 (Homo sapiens, UniProt P52564); details: 1 μM; Run 1, Run 2
[23] = target: IKKe/IKBKE (Homo sapiens, UniProt Q14164); details: 1 μM; Run 1, Run 2
[24] = target: PKCepsilon (Homo sapiens, UniProt Q02156); details: 1 μM; Run 1, Run 2
[25] = target: YSK4/MAP3K19 (Homo sapiens, UniProt Q56UN5); assay: biochemical; details: read-out: % enzyme activity, 1 μM; Run 1, Run 2
[26] = target: PKCiota (Homo sapiens, UniProt P41743); details: 1 μM; Run 1, Run 2
[27] = target: PASK (Homo sapiens, UniProt Q96RG2); assay: biochemical; details: read-out: % enzyme activity, 1 μM; Run 1, Run 2
[28] = target: PDGFRa (Homo sapiens, UniProt P16234); assay: biochemical; details: read-out: % enzyme activity, 1 μM; Run 1, Run 2
[29] = target: TEC (Homo sapiens, UniProt P42680); assay: biochemical; details: read-out: % enzyme activity, 1 μM; Run 1, Run 2
[30] = target: RON/MST1R (Homo sapiens, UniProt Q04912); details: 1 μM; Run 1, Run 2
[31] = target: AURORA B (Homo sapiens, UniProt Q96GD4); details: 1 μM; Run 1, Run 2
[32] = target: LYN (Homo sapiens, UniProt P07948); assay: biochemical; details: read-out: % enzyme activity, 1 μM; Run 1, Run 2
[33] = target: MNK1 (Homo sapiens, UniProt Q9BUB5); details: 1 μM; Run 1, Run 2
[34] = target: ACK1 (Homo sapiens, UniProt Q07912); assay: biochemical; details: read-out: % enzyme activity, 1 μM; Run 1, Run 2
[35] = target: MST4 (Homo sapiens, UniProt Q9P289); details: 1 μM; Run 1, Run 2
[36] = target: WEE1 (Homo sapiens, UniProt P30291); assay: biochemical; details: read-out: % enzyme activity, 1 μM; Run 1, Run 2
[37] = target: c-MER (Homo sapiens, UniProt Q12866); assay: biochemical; details: read-out: % enzyme activity, 1 μM; Run 1, Run 2
[38] = target: NEK5 (Homo sapiens, UniProt Q6P3R8); details: 1 μM; Run 1, Run 2
[39] = target: IR (Homo sapiens, UniProt P06213); details: 1 μM; Run 1, Run 2
[40] = target: TIE2/TEK (Homo sapiens, UniProt Q02763); assay: biochemical; details: read-out: % enzyme activity, 1 μM; Run 1, Run 2
[41] = target: CDK2/cyclin E (Homo sapiens, UniProt P24941); assay: biochemical; details: read-out: % enzyme activity, 1 μM; Run 1, Run 2
[42] = target: JNK2 (Homo sapiens, UniProt P45984); details: 1 μM; Run 1, Run 2
[43] = target: EPHA4 (Homo sapiens, UniProt P54764); details: 1 μM; Run 1, Run 2

Amino acid sequences for entries named in this document (tags omitted). A change or cut given only in a name is not applied to a line headed by its entry. Residues count along the entry.
UniProt P14616, 27-1297: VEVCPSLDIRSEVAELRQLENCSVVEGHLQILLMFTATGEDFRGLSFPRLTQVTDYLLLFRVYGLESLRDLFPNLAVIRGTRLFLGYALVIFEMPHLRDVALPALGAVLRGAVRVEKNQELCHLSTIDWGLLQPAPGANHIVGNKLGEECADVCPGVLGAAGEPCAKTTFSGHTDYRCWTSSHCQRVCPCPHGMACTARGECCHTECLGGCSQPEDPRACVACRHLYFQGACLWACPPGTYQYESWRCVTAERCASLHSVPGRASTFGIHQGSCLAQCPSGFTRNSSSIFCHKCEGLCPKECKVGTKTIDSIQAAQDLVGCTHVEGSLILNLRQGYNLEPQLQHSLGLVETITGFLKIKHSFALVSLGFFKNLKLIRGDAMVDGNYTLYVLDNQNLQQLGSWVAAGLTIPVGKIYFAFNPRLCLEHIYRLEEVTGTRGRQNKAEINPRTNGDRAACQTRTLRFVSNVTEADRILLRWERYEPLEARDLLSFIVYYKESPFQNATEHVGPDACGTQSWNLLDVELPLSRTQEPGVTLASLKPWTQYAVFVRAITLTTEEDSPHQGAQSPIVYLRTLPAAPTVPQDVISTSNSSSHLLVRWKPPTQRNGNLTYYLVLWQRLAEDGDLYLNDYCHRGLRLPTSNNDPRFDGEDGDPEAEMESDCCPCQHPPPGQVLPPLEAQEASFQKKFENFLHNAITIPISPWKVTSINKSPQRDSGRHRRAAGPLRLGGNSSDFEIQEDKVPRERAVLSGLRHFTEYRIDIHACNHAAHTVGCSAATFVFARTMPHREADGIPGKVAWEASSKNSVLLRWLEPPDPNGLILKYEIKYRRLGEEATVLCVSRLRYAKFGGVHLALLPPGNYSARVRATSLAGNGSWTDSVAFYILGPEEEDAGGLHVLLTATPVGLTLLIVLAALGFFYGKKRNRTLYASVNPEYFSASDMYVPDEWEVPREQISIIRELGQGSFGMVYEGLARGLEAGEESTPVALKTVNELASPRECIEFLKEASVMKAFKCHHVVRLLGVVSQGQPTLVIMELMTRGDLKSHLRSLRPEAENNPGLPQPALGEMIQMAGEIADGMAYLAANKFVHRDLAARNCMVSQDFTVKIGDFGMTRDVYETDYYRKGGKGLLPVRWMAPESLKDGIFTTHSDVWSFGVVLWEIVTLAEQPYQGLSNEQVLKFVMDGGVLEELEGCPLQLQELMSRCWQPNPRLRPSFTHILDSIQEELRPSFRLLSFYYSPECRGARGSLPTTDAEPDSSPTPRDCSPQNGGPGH
UniProt Q9BZL6: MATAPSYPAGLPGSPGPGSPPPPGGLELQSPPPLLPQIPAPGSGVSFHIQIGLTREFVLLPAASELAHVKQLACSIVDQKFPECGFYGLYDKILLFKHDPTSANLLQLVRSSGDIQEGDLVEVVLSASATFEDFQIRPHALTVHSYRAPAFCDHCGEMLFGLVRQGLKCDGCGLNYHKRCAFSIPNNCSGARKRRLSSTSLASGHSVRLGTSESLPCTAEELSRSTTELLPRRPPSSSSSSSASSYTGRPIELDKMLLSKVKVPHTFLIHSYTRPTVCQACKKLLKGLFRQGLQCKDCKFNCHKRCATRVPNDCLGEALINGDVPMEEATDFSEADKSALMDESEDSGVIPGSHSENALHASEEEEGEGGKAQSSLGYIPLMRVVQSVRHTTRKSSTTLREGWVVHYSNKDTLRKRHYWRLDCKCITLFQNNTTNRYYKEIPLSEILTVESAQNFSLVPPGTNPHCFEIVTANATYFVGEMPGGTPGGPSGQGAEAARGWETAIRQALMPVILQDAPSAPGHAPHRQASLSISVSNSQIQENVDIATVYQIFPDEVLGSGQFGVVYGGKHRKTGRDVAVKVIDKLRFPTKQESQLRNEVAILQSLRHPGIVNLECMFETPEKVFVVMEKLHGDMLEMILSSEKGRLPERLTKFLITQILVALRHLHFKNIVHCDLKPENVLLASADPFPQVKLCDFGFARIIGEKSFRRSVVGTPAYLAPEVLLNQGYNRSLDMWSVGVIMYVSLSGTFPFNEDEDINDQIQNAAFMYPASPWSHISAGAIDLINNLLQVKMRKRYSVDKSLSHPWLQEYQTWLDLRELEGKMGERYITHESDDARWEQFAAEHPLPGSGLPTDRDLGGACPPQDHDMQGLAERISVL
UniProt Q8NE63: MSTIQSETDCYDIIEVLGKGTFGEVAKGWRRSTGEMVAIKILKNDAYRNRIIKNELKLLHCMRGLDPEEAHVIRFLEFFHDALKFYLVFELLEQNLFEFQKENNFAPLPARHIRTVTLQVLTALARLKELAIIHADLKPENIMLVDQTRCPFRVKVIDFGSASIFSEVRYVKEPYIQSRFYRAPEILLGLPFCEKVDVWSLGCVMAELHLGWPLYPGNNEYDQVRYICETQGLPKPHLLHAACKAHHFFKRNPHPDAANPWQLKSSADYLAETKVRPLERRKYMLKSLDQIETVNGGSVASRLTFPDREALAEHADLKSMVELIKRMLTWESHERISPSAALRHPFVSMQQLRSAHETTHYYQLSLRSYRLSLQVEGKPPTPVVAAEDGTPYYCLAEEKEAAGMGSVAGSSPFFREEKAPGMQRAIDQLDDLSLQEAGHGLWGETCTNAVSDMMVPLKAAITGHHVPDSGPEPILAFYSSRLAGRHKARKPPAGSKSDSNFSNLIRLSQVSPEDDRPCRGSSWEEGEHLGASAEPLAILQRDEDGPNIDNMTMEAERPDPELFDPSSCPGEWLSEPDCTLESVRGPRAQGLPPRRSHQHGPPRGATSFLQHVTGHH
UniProt P54762, 18-984: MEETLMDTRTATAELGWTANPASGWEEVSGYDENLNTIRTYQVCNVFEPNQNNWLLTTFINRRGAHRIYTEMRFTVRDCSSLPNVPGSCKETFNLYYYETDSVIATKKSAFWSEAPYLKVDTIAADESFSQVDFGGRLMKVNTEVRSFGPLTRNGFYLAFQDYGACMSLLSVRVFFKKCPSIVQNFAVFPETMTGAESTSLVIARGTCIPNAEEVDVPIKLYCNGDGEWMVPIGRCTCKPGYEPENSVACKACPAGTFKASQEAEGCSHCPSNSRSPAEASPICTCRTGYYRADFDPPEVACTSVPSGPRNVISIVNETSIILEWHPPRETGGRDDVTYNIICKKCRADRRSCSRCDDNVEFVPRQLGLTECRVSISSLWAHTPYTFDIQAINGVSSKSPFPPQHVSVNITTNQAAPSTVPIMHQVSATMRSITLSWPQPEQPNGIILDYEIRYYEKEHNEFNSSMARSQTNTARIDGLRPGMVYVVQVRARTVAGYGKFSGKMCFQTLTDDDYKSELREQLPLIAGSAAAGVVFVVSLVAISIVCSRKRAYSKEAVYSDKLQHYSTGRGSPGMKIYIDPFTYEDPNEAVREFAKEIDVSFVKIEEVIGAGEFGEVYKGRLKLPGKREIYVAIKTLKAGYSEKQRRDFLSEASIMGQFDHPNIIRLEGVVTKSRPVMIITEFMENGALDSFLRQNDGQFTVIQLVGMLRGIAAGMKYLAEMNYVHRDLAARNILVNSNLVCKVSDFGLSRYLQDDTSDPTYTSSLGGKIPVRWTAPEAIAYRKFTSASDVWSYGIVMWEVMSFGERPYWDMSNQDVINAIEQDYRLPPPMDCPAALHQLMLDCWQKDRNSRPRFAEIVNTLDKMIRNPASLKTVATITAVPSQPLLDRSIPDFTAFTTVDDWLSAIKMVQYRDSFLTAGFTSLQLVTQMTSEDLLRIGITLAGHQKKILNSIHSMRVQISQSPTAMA
UniProt Q13164: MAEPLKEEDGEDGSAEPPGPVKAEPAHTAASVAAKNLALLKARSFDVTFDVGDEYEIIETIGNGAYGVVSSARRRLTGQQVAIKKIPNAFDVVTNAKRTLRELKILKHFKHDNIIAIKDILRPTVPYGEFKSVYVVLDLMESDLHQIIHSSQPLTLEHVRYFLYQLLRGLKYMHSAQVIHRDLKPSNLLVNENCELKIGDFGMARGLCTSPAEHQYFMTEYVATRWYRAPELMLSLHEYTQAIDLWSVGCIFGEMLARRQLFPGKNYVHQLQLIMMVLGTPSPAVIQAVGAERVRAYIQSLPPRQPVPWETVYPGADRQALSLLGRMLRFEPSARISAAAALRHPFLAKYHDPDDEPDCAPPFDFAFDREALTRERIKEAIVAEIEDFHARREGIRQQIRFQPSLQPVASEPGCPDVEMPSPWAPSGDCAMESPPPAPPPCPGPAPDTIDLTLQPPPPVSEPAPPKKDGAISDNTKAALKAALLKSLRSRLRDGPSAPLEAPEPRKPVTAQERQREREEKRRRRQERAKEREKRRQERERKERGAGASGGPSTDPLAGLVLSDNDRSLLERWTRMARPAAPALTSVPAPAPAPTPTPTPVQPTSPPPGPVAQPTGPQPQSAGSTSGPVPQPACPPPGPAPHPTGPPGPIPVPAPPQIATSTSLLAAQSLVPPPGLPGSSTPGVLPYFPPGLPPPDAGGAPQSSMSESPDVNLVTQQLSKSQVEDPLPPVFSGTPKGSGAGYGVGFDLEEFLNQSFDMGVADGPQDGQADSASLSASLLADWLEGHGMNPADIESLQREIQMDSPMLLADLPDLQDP
UniProt P16234, 24-1089: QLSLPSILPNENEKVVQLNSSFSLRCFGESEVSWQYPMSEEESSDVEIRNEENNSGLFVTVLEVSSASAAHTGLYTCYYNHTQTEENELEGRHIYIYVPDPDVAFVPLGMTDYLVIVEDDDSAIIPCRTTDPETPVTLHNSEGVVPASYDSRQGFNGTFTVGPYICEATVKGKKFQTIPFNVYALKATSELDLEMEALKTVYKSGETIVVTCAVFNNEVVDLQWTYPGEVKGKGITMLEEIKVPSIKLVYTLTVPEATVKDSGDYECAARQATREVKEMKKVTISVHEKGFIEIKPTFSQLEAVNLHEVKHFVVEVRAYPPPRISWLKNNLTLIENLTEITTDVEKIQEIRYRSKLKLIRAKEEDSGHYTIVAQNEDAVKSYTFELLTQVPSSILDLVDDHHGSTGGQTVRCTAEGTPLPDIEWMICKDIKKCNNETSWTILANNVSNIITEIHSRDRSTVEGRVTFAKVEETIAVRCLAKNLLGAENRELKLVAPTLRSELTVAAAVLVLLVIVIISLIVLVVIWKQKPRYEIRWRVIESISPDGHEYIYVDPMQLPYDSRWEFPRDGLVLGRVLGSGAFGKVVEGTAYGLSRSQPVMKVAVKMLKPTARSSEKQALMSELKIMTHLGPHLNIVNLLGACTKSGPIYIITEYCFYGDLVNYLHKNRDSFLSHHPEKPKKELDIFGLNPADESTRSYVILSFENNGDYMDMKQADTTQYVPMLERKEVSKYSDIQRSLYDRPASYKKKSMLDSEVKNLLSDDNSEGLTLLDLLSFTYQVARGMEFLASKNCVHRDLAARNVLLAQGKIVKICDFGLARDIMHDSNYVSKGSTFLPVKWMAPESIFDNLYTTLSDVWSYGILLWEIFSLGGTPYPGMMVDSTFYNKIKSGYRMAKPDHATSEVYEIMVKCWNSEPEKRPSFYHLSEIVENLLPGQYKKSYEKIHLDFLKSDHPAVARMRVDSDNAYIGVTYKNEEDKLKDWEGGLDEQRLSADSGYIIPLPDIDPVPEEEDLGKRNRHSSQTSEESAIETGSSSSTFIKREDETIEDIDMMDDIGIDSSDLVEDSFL
UniProt Q6P3R8: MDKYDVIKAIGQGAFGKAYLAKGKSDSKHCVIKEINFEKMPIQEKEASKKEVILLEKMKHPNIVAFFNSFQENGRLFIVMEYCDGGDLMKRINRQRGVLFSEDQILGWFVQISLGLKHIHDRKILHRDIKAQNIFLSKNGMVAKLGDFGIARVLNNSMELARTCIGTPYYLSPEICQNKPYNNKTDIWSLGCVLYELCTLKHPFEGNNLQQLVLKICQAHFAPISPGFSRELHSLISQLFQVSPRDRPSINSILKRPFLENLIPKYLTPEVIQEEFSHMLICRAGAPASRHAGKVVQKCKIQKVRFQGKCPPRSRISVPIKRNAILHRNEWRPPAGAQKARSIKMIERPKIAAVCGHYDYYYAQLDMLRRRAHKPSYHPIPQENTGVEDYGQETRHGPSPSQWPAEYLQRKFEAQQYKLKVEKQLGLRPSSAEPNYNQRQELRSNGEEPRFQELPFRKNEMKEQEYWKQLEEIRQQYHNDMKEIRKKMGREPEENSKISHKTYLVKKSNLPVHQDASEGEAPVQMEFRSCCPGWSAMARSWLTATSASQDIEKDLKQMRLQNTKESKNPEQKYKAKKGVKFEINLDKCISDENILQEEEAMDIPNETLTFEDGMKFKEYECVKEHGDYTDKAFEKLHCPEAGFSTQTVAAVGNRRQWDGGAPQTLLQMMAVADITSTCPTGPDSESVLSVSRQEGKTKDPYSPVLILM

## COc1cc(-c2cncc(-c3ccc(N4CCN(C(C)C)CC4)cc3)c2C)cc(F)c1C(N)=O [Compound 26b, 2-Fluoro-4-(5-(4-(4-isopropylpiperazin-1-yl)phenyl)-4-methylpyridin-3-yl)-6-methoxybenzamide]
[1]
  remaining activity at 1 µM: 93.4%
[2]
  % enzyme activity: 101.05%
[3]
  % enzyme activity: 121.01%
[4]
  remaining activity at 1 µM: 94.9%
[5]
  remaining activity at 1 µM: 96.3%
[6]
  remaining activity at 1 µM: 105%
[7]
  % enzyme activity: 95.97%
[8]
  remaining activity at 1 µM: 85.1%
[9]
  % enzyme activity: 84.48%
[10]
  % enzyme activity: 79.92%
[11]
  % enzyme activity: 94.08%
[12]
  remaining activity at 1 µM: 83.8%
[13]
  % enzyme activity: 103.79%
[14]
  % enzyme activity: 97.41%
[15]
  % enzyme activity: 83.86%
[16]
  remaining activity at 1 µM: 94.9%
[17]
  remaining activity at 1 µM: 105%
[18]
  % enzyme activity: 91.06%
[19]
  remaining activity at 1 µM: 98.4%
[20]
  % enzyme activity: 95.05%
[21]
  % enzyme activity: 98.66%
[22]
  % enzyme activity: 64.71%
[23]
  % enzyme activity: 82.11%
[24]
  % enzyme activity: 97.53%
[25]
  remaining activity at 1 µM: 105%
[26]
  % enzyme activity: 95.18%
[27]
  remaining activity at 1 µM: 90.7%
[28]
  remaining activity at 1 µM: 80%
[29]
  remaining activity at 1 µM: 128%
[30]
  % enzyme activity: 108.77%
[31]
  % enzyme activity: 110.21%
[32]
  remaining activity at 1 µM: 84%
[33]
  % enzyme activity: 59.43%
[34]
  remaining activity at 1 µM: 66.8%
[35]
  % enzyme activity: 90.53%
[36]
  remaining activity at 1 µM: 129%
[37]
  remaining activity at 1 µM: 97%
[38]
  % enzyme activity: 96.39%
[39]
  % enzyme activity: 100.67%
[40]
  remaining activity at 1 µM: 93.1%
[41]
  remaining activity at 1 µM: 106%
[42]
  % enzyme activity: 90.94%
[43]
  % enzyme activity: 99.89%
